Results taken from PubChem BioAssay AID2685 (National Center for Advancing Translational Sciences (NCATS), 2010).
The whole screen tested about 320,000 compounds, of which about 2,100 (0.66%) were called active. Inconclusive means that the source gave no clear call. Such entries were picked first, then a sample of the others. The call rests on the fitted dose curve; in most records, active means well fitted inhibition curve with a large enough effect in the signal ratio, with a control signal flat (not every such curve was filed as active); inconclusive means small, poorly fitted or top-dose-only effect, or effect the other way, or a change in a side signal; inactive means flat fitted curve, though single readings scatter; the % refers to the signal ratio. A potency beside an inconclusive call is a rough fit, not a confirmed value.
On the % scale 0 is the no-effect control and ±100 the full control effect; potency means the concentration at half of the fitted maximal effect.

Test: qHTS Assay for Lipid Storage Modulators in Drosophila S3 Cells
Conditions: BODIPY lipid droplet fluorescence, 18-24 h, cells fed with added oleic acid; lipid storage change, negative = inhibition: at 46.1 µM (top of the series) unless noted
Method in brief: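 Laser-scanning cytometry quantifies lipid droplet accumulation (500–530 nm total intensity; droplet/cell object ratio) in oleic acid-fed (400 uM added) Drosophila S3 cells treated with a concentration series. 20 uM Triacsin C defined 100% inhibition.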
For `N#Cc1c(N)oc(-c2ccccc2)c1-c1ccccc1`, the Potency was inconclusive: 4.11 µM [falling, full curve]. For `CCC(c1nnnn1C1CCCC1)N1CCC(C(N)=O)CC1` (stereo not given), the lipid storage change, negative = inhibition was inconclusive: -6.63%. With `COc1ccc(NC(=O)c2cccc(N3C(=O)C4CC=C(C)CC4C3=O)c2)c(OC)c1` (stereo not given) the Potency was inconclusive: 29.1 µM [activator, single point]. In the case of `CCCOc1ccccc1OCC(=O)Nc1ccc(S(=O)(=O)N2CCCCC2)cc1`, the Potency is reported as inconclusive: 20.6 µM [cytotoxic, single point]. With `O=C(NCCc1ccccc1C(F)(F)F)C1CCC(=O)N(CCCN2CCCC2=O)C1` (stereo not given) the Potency was inconclusive: 5.17 µM [falling, single point]. In the case of `CC(C)CC(=O)Nc1ccc(C(=O)CN2CCN(c3ccc(O)cc3)CC2)cc1`, the Potency is reported as active: 4.61 µM. In the case of `Cc1c(C(=O)C(=O)NCCc2ccc(S(N)(=O)=O)cc2)c2ccccc2n1C`, the lipid storage change, negative = inhibition is reported as inconclusive: 25.8%. With `CCOc1ccc(C(=O)CSc2nnc(N)s2)cc1` the lipid storage change, negative = inhibition was inconclusive: 11.7%. In the case of `CCCCN(C(=O)c1c(CC)noc1C)c1c(N)n(CCCC)c(=O)[nH]c1=O`, the Potency is reported as inconclusive: 0.291 µM [falling, full curve, poor fit]. With `CN(C)S(=O)(=O)c1cccc(NC(=O)CNCC2CCCCC2)c1` the lipid storage change, negative = inhibition was inconclusive: 9.39%. For `COc1ccc(-c2nc3cc(NC(=O)c4ccc5c(c4)OCO5)ccc3o2)cc1`, the lipid storage change, negative = inhibition was inconclusive: 18.4%. For `Cc1cccc(NC(=O)CCn2nc(C)cc2C)c1`, the Potency was inconclusive: 25.9 µM [activator, single point]. For `CCOC(=O)Cc1csc(NC(=O)COc2c(C)cccc2C)n1`, the lipid storage change, negative = inhibition was inconclusive: 23.8%. With `NC(=O)C1CCCN(C(=O)c2cccc(S(=O)(=O)N(Cc3ccccc3)c3ccccc3)c2)C1` (stereo not given) the lipid storage change, negative = inhibition was inconclusive: -7.89%. With `CCN(c1ccccc1)S(=O)(=O)c1ccc(Cl)c(NC(=O)CSc2n[nH]c(N)n2)c1` the lipid storage change, negative = inhibition was inconclusive: 15.6%. For `Cc1cccc(-c2nc(CS(=O)CC(=O)NC3CCCCC3)c(C)o2)c1` (stereo not given), the lipid storage change, negative = inhibition was inconclusive: 43.1%. For `COc1cc(C)c(NC(=O)COc2cccc3c2OC(C)(C)C3)cc1OC`, the lipid storage change, negative = inhibition was inconclusive: -68%. In the case of `COc1ccc(OCCCC(=O)N(C)CC(=O)Nc2c(C)cccc2C)cc1`, the lipid storage change, negative = inhibition is reported as inconclusive: 64.8% [activator] [at 0.0737 µM]. With `O=C(CC12CC3CC(CC(C3)C1)C2)NCC(=O)OCc1cc(=O)oc2ccc3ccccc3c12` the Potency was inconclusive: 18.4 µM [falling, partial curve]. With `Cc1cc(C(=O)N2CCC(C(=O)O)CC2)c(C)o1` the lipid storage change, negative = inhibition was inconclusive: -20.2%. With `COc1cc(/C=C/C(=O)Nc2nnc(CC(C)C)s2)cc(OC)c1OC` the Potency was inconclusive: 1.03 µM [falling, partial curve, poor fit]. In the case of `CCCOc1ccc(N2C(=O)CC(NCc3ccncc3)C2=O)cc1` (stereo not given), the Potency is reported as inconclusive: 9.2 µM [activator, single point]. In the case of `COc1ccc(C2=NS(=O)(=O)N(C)C(C(=O)N3CCOCC3)=C2)cc1OC`, the lipid storage change, negative = inhibition is reported as inconclusive: 12.2%. For `COC(=O)c1ccncc1C(=O)Nc1ccc(F)cc1`, the lipid storage change, negative = inhibition was inconclusive: 6%. In the case of `O=S(=O)(c1cccc2cccnc12)N1CCN(c2ccccc2)CC1`, the Potency is reported as inconclusive: 0.0651 µM [activator, full curve, poor fit]. For `C=C1N(CCCCCC(=O)O)C(=O)OC12CCCCC2`, the Potency was inconclusive: 0.184 µM [falling, full curve]. In the case of `CC(C)=C(NC(=O)c1ccccc1)C(=O)Nc1ccc(C(=O)O)cc1`, the lipid storage change, negative = inhibition is reported as inconclusive: 19.4%. In the case of `O=c1cc2c(nn1Cc1cccc([N+](=O)[O-])c1)-c1ccccc1CC2`, the lipid storage change, negative = inhibition is reported as inconclusive: 20.2% [at 9.22 µM]. In the case of `COc1cccc(-c2ocnc2C(=O)Nc2ccc(N3CCOCC3)cc2N2CCOCC2)c1`, the lipid storage change, negative = inhibition is reported as inconclusive: -73.4%. In the case of `Cc1nn(-c2ccccc2)c(C)c1NC(=O)c1cccs1`, the Potency is reported as inconclusive: 0.116 µM [activator, full curve, poor fit]. In the case of `O=C(Nc1ccc2c(c1)CCC2)c1cnccn1`, the lipid storage change, negative = inhibition is reported as inconclusive: 65.8%. In the case of `Cc1ccc(/C=C/C(=O)OCC(=O)Nc2ccc3[nH]c(=O)[nH]c3c2)o1`, the lipid storage change, negative = inhibition is reported as inconclusive: -7.68%. With `Cc1cc(C)nc(OC(C(=O)O)C(OCC(C)C)(c2ccccc2)c2ccccc2)n1` (stereo not given) the Potency was active: 29.1 µM. With `FC(F)(F)c1ccccc1/C=N/N1CCN(Cc2ccccc2)CC1` the lipid storage change, negative = inhibition was inconclusive: -64.8%. In the case of `O=C(NC(=S)NC1C2CC3CC(C2)CC1C3)C12CC3CC(CC(C3)C1)C2` (stereo not given), the lipid storage change, negative = inhibition is reported as inconclusive: 16.9%. In the case of `CCS(=O)(=O)Nc1ccc(-c2nc3cccnc3s2)cc1`, the lipid storage change, negative = inhibition is reported as inconclusive: 10.4%. In the case of `COC(=O)C1(C)NC(c2cccs2)C2C(=O)N(c3ccc(F)cc3)C(=O)C21` (stereo not given), the lipid storage change, negative = inhibition is reported as inconclusive: -38.6%. For `CN(Cc1c(F)cccc1Cl)C(=O)C1CC(=O)N(CCc2ccccc2)C1` (stereo not given), the lipid storage change, negative = inhibition was inconclusive: -14.1%. With `Cc1cc(C(=O)N2CCC(Cc3ccccc3)CC2)c(C)o1` the lipid storage change, negative = inhibition was inconclusive: -0.0048%. In the case of `CSCCC(NC(=O)c1cc([N+](=O)[O-])cc([N+](=O)[O-])c1)c1nc2ccccc2[nH]1` (stereo not given), the lipid storage change, negative = inhibition is reported as inconclusive: -11.6%. In the case of `Cc1cc(C)c(C)c(S(=O)(=O)N2CCN(C(=S)NCC3CCCO3)CC2)c1C` (stereo not given), the lipid storage change, negative = inhibition is reported as inconclusive: 11.1%. With `O=C(Cn1cnc2ccccc2c1=O)Nc1ccc(-c2nnc3n2CCCCC3)cc1` the lipid storage change, negative = inhibition was inconclusive: 12.3%. For `CC1=C(C(=O)Nc2ccc(C(=O)N3CCN(c4ccccc4F)CC3)cc2)SCCO1`, the Potency was inconclusive: 6.51 µM [activator, single point]. For `COC(=O)c1ccc(CN(c2ccc(C(=O)O)c(O)c2)S(=O)(=O)c2ccc(Cl)c([N+](=O)[O-])c2)cc1`, the lipid storage change, negative = inhibition was inconclusive: 24.6%. With `CCN1C(=O)N[C@H](c2ccc(Br)cc2)C(C(C)=O)=C1C` the lipid storage change, negative = inhibition was inconclusive: -3.81%. With `O=C(COc1ccc(Cl)cc1)Nc1c(-c2cccs2)nc2ccccn12` the lipid storage change, negative = inhibition was inconclusive: -5.12%. In the case of `CCOC(=O)NC(=O)COC(=O)c1cccc2ccccc12`, the lipid storage change, negative = inhibition is reported as inconclusive: 1.76%. With `CN1C(C(=O)Nc2ccc(OC(F)(F)F)cc2)=CC(c2ccc3c(c2)OCO3)=NS1(=O)=O` the lipid storage change, negative = inhibition was inconclusive: -21.4%. In the case of `COc1ccc(S(=O)(=O)Nc2ncccn2)cc1`, the Potency is reported as inconclusive: 13 µM [activator, partial curve]. With `Cc1nn(CC(=O)Nc2nccs2)c(C)c1[N+](=O)[O-]` the lipid storage change, negative = inhibition was inconclusive: -0.915%. With `Cc1cc(C)c(NC(=O)c2ccc3c(c2)NC(=O)C(C)S3)c(C)c1` (stereo not given) the Potency was inconclusive: 20.6 µM [activator, single point]. With `CC(=O)Nc1ccc(NC(=O)CSC2=NS(=O)(=O)c3ccccc3N2)cc1` the lipid storage change, negative = inhibition was “inconclusive”. In the case of `Cc1ncc([N+](=O)[O-])n1CC(=O)Nc1ccc(Br)cc1`, the Potency is reported as inconclusive: 2.59 µM [activator, full curve]. For `Cc1ccc(/C=N/N(C)S(=O)(=O)c2ccc(C)cc2)cc1`, the lipid storage change, negative = inhibition was inconclusive: -99.6%. For `O=S(=O)(c1ccc(S(=O)(=O)N2CCCN(Cc3ccccc3)C2)cc1)N1CCCCCC1`, the Potency was inconclusive: 0.164 µM [cytotoxic, full curve, poor fit]. For `Cc1cc(/C=C(\C#N)C(=O)NC2CC2)c(C)[nH]1`, the Potency was inconclusive: 1.64 µM [activator, full curve, poor fit]. With `O=C(COc1cc2oc(=O)c3c(c2cc1Cl)CCCC3)N1C[C@H]2C[C@@H](C1)c1cccc(=O)n1C2` the Potency was active: 1.46 µM. With `O=C(c1ccccc1)c1cncc(Br)c1` the lipid storage change, negative = inhibition was inconclusive: 13.6%. For `CCOC(=O)/C(=N\Nc1cccc(C(F)(F)F)c1)N(CCOC)CCOC`, the Potency was inconclusive: 1.46 µM [rising, partial curve]. With `O=C(CSc1n[nH]c(-c2cccnc2)n1)Nc1ccccc1[N+](=O)[O-]` the lipid storage change, negative = inhibition was inconclusive: 26.1%. For `Brc1cc(Br)c2nc(-c3cccs3)ccc2c1`, the Potency was inconclusive: 6.51 µM [activator, single point]. In the case of `OCc1cn(-c2ccc(Cl)cc2)nn1`, the lipid storage change, negative = inhibition is reported as inconclusive: -58.4%. With `Cc1ccc(S(=O)(=O)N2CCOC2CNC(=O)C(=O)NCc2ccncc2)cc1` (stereo not given) the lipid storage change, negative = inhibition was inconclusive: 21.2%. For `Cc1cccc(C)c1OCCNC(=O)C(=O)NCc1ccco1`, the lipid storage change, negative = inhibition was inconclusive: 8.09%. In the case of `CN(C)c1nccc(Nc2ccccc2)c1C#N`, the Potency is reported as inconclusive: 18.4 µM [activator, single point]. In the case of `O=C(Cc1c(F)cccc1Cl)NNC(=O)Nc1ccc2c(c1)OCO2`, the Potency is reported as inconclusive: 10 µM [activator, partial curve, poor fit]. For `CCOC(=O)C(C)Sc1nc(-c2cccs2)ccc1C#N` (stereo not given), the lipid storage change, negative = inhibition was inconclusive: 84.8%. In the case of `Cc1ccc(OCCC(=O)N(Cc2ccccc2)c2c(N)n(Cc3ccccc3)c(=O)[nH]c2=O)cc1`, the lipid storage change, negative = inhibition is reported as “inconclusive”. With `CC(c1ccccc1)N1CCn2c(nc3cc(NS(C)(=O)=O)ccc32)C1` (stereo not given) the lipid storage change, negative = inhibition was inconclusive: 3.73%. With `O=C(C(=S)N1CCOCC1)c1c[nH]c2ccccc12` the lipid storage change, negative = inhibition was inconclusive: 96.3%. For `CCc1ccc(C(=O)NNC(=O)CCN2CCN(Cc3ccccc3)CC2)cc1`, the lipid storage change, negative = inhibition was inconclusive: 20.5%. For `CCCCOc1ccc(C(=O)N/C(=C\c2cccc([N+](=O)[O-])c2)C(=O)OCCC)cc1`, the lipid storage change, negative = inhibition was inconclusive: -64.7%. With `COc1ccc(OC)c(S(=O)(=O)N2CCN(CC(O)COc3ccccc3)CC2)c1` (stereo not given) the Potency was inconclusive: 0.13 µM [falling, full curve, poor fit]. For `O=C(CSc1cn(Cc2cccc(F)c2)c2ccccc12)NCc1ccc(F)cc1`, the “lipid storage change, negative = inhibition” value was inactive: 17%. In the case of `COc1cc(OC)cc(C(=O)N2CCC(C(=O)N3CCOCC3)CC2)c1`, the lipid storage change, negative = inhibition is reported as inconclusive: 1.9%.
